These are yes or no findings as the source states them, for the method shown. For part of these data: In cells and extracts the contact can be indirect. Some entries that bind do so weakly or less than the wild type. For part of these data: Sequences can lack the tags named with a protein.

Among the data in paper doi:10.1101/2020.03.26.992446 are binding values, retold here.

One assay concerns the target DJ-1 D189A (human) (UniProt Q99497). The assay is described as follows: cross-linking.
For another assay, the target named is DJ-1 D189L (human) (UniProt Q99497). The assay is described as follows: cross-linking.
For a further assay, the target named is DJ-1 K188E (human) (UniProt Q99497). The assay is described as follows: cross-linking.
The next assay concerns the target DJ-1 K188R (human) (UniProt Q99497). The assay is described as follows: cross-linking.
The target in assay [1] is DJ-1 L187E (in DJ-1-/- MEFs) (human) (UniProt Q99497). The assay is described as follows: cross-linking.
A further assay concerns the target DJ-1 ΔC1 (human) (UniProt Q99497). The assay is described as follows: cross-linking.
In the next assay the target is DJ-1 ΔC2 (human) (UniProt Q99497). Description: cross-linking.
For assay [2], the target named is DJ-1 ΔC3 (in DJ-1-/- MEFs) (human) (UniProt Q99497). The assay is described as follows: cross-linking.
For assay [3], the target named is DJ-1 ΔC3 (in HEK293T cells) (human) (UniProt Q99497). The assay is described as follows: cross-linking.
The target in a further assay is DJ-1 ΔC6 (human) (UniProt Q99497). The assay is described as follows: cross-linking.
A further assay deals with DJ-1 ΔC15 (human) (UniProt Q99497). Description: cross-linking.
A further assay concerns the target DJ-1 ΔC17 (human) (UniProt Q99497). The assay is described as follows: cross-linking.
A further assay concerns the target DJ-1 ΔC23 (human) (UniProt Q99497). Description: cross-linking.
The target of a further assay is DJ-1 ΔC29 (human) (UniProt Q99497). Description: cross-linking.
Assay [4] concerns the target T1, Flag-tagged DJ-1 (human), Q99497.
T1 chain: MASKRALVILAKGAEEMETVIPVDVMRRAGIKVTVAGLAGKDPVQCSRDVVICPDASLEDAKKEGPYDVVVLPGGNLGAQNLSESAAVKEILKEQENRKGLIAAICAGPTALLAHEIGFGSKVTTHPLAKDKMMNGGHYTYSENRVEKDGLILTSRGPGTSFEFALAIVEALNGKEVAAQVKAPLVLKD
Description: cross-linking. As to conditions: remark: other sources report otherwise.

Assay [5] addresses T2, Myc-tagged DJ-1 (human), Q99497.
T2 chain: T1 chain
The assay is described as follows: cross-linking. To be noted: remark: other sources report otherwise.

Assay [6] concerns the target T1, Flag-tagged DJ-1 (human), Q99497. The assay is described as follows: co-IP. To be noted: remark: other sources report otherwise.
Assay [7] concerns the target T2, Myc-tagged DJ-1 (human), Q99497. The assay is described as follows: co-IP. As to conditions: remark: other sources report otherwise.
The target in assay [8] is T3, purified DJ-1 WT (N-terminal 6×His-tagged) (human), Q99497.
T3 chain: T1 chain
The assay is described as follows: cross-linking. To be noted: remark: other sources report otherwise.

Assay [9] has as its target T4, human DJ-1 WT (reintroduced into DJ-1-/- MEFs) (human), Q99497.
T4 chain: T1 chain
Description: cross-linking. As to conditions: remark: other sources report otherwise.

For the molecule DJ-1 D189A (from UniProt Q99497 1-189), the binding result with DJ-1 D189A (human) is recorded as “binds”. As to DJ-1 D189L (from UniProt Q99497 1-189), the binding result with DJ-1 D189L (human) is “binds”.

Take DJ-1 K188E (from UniProt Q99497 1-189): in the assay with DJ-1 K188E (human), the binding entry is “binds”. DJ-1 K188R (from UniProt Q99497 1-189): in the assay with DJ-1 K188R (human), the binding result is “binds”. As to “DJ-1 L187E (in DJ-1-/- MEFs) (from UniProt Q99497 1-189)”, the binding result in assay [1] is reported as “no binding”. In the case of “DJ-1 ΔC1 (from UniProt Q99497 1-188) (domain or fragment)”, the binding entry with DJ-1 ΔC1 (human) was “binds”.

With “DJ-1 ΔC2 (from UniProt Q99497 1-187) (domain or fragment)”, in the assay with DJ-1 ΔC2 (human), the binding result was “binds”. As for “DJ-1 ΔC3 (in DJ-1-/- MEFs) (from UniProt Q99497 1-186) (domain or fragment)”, the binding result in [2] is “no binding”. For “DJ-1 ΔC3 (in HEK293T cells) (from UniProt Q99497 1-186) (domain or fragment)”, in [3], the binding result is given as “no binding”. For the molecule “DJ-1 ΔC6 (from UniProt Q99497 1-183) (domain or fragment)”, the binding entry in the assay with DJ-1 ΔC6 (human) was “no binding”. On to “DJ-1 ΔC15 (from UniProt Q99497 1-174) (domain or fragment)”, for which the binding entry in the assay with DJ-1 ΔC15 (human) is given as “no binding”.

In the case of “DJ-1 ΔC17 (from UniProt Q99497 1-172) (domain or fragment)”, the binding entry with DJ-1 ΔC17 (human) is given as “no binding”. With “DJ-1 ΔC23 (from UniProt Q99497 1-166) (domain or fragment)”, the binding entry in the assay with DJ-1 ΔC23 (human) is given as “no binding”. On to “DJ-1 ΔC29 (from UniProt Q99497 1-160) (domain or fragment)”, for which the binding result in the assay with DJ-1 ΔC29 (human) is reported as “no binding”.

B1: Myc-tagged DJ-1, Q99497 1-189 (protein)
chain: T1 chain
B1: the binding result in assay [4], in [5] and in [6] was “binds” each time.

B2: Flag-tagged DJ-1, Q99497 1-189 (protein)
chain: T1 chain
Regarding B2, the binding entry in [4] and in [7] was “binds” in each case.

B3: purified DJ-1 WT (N-terminal 6×His-tagged), Q99497 1-189 (natural protein)
chain: T1 chain
Regarding B3, the binding entry in assay [8] is given as “binds”.

B4: human DJ-1 WT (reintroduced into DJ-1-/- MEFs), Q99497 1-189 (protein)
chain: T1 chain
With B4, the binding entry in [9] was “binds”.
